# Some results were stated once for a whole list of compounds, not compound by compound.
# Tested on: HIV-1 infection of primary human T cells
# Assay: HIV-1 infection of primary human T cells, reverse transcriptase assay
# Format: cell-based
# Details: peptide at 1 μg/ml; IIIB strain; RT activity after 9 days; FIG. 8
sequence,measurement,value
"HIGPGRAFYTTKN [Peptide H13N, V3-loop peptide from HIV-1mn strain]",inhibition of HIV-1 infection of primary human T cells,> 60%

# Reference: US7319000B1, “Compositions and methods for eliciting immune or anti-infective responses” (priority 1992, dated 2008)
